Experimental data published in patent US5446157A, “Boron difluoride compounds useful in photodynamic therapy and production of laser light” (priority 1993, dated 1995).

Assays:
[1] = cited from earlier work
[2] = Laser characteristics of pyrromethene-BF2 complexes under flashlamp excitation (Table IV); conditions: DMA/MeOH; for λL: conc. × 10^4 M: I 1.5, II 2, III 2, Rhodamine 590 0.5
[3] = Use as laser dye: lasing threshold and wavelength range in 10 mm flashlamp D-1100 dye laser (Phas-R Model D-1100)
[4] = Laser activity (λlas, relative efficiency RE); conditions: for RE (relative efficiency): 100 assigned to R-6G
[5] = Continuous wave operation with argon ion pump laser: power efficiency; conditions: CW, 5 watts all lines 457.9-514.5 nm
[6] = Power efficiency in Candela flashlamp dye laser; conditions: Candela LFDL-8 laser, flashlamp, pulsewidth 2 μsec, risetime 0.7 μsec
[7] = P-BF2 dyes dispersed in acrylic co-polymer (solid-state laser); conditions: polymer matrix, 5 parts methyl methacrylate and 1 part hydroxypropyl acrylate; PMDEP-BF2 10^-4 M
From the text: Any laser dye of the present invention may be substituted for the dye in any of the examples of that incorporated patent. The matrix generally includes solid polymeric host laser rods prepared using bulk polymerization of acrylic acid ester comonomers.

[8] = 2 × 10^-4 M in ethanol, Ref [2] / Shah et al. 1990

Question: For `CCN1C(=CC=Cc2oc3ccccc3[n+]2CC)Oc2ccccc21` [Compound 3a, reference compound], which λlas ([1]; literature or known dye) is on record?
Answer: 541 nm

Question: For `CN1C(=CC=CC=CC=Cc2oc3ccccc3[n+]2C)Oc2ccccc21` [Compound 3b, reference compound], which λlas ([1]; literature or known dye) is on record?
Answer: 800 nm

Question: What does the source list for `CC1=CC(C)=[N+]2C1=C(C)c1c(C)cc(C)n1[B-]2(F)F` [Compound 7a, 4,4-difluoro-1,3,5,7,8-pentamethyl-4-bora-3a,4a-diaza-s-indacene]?
Answer: λlas [1, 8]: 542 nm; Vth [2]: 8-10 kV; Eo (V = 18 kV) [2]: 85 mJ; λL [2]: 542 nm; lasing threshold ([3]; 60 mg in 250 ml of methanol): 9.5 kV; lasing wavelength range ([3]; 60 mg in 250 ml of methanol): 532-565 nm

Question: What does the source list for `CCOC(=O)C1=C(C)C2=C(C#N)c3c(C)c(C(=O)OCC)c(C)n3[B-](F)(F)[N+]2=C1C` [Compound 7aa, diethyl 1,3,5,7-tetramethyl-8-cyanopyrromethene-2,6-dicarboxylate-BF2 complex]?
Answer: λlas ([4]; 2 × 10^-4 M in p-dioxan): 617 nm; RE (relative efficiency) [4]: 55; power efficiency relative to rhodamine-B ([4]; λlas 617 nm vs 611 nm): nearly twice

Question: Which λlas [1, 8] does the source give for `CC1=C(C)C(C)=[N+]2C1=C(C)c1c(C)c(C)c(C)n1[B-]2(F)F` [Compound 7b] here?
Answer: 573 nm

Question: And the “RE (relative efficiency)” value ([1]; 100 assigned to R-6G, Ref [2])?
Answer: 65

Question: For `CCC1=C(C)C2=C(C#N)c3c(C)c(CC)c(C)n3[B-](F)(F)[N+]2=C1C` [Compound 7bb, 1,3,5,7-Tetramethyl-2,6-diethyl-8-cyanopyrromethene-BF2 complex], which λlas ([4]; 2 × 10^-4 M in p-dioxan, Phase-R DL-1100 dye laser with DL-5Y coaxial flashlamp) is on record?
Answer: 670 nm

Question: What does the source list for `CCCC1=C(C)C2=C(C)c3c(C)c(CCC)c(C)n3[B-](F)(F)[N+]2=C1C` [Compound 7d, 2,6-Di-n-propyl-1,3,5,7,8-pentamethylpyrromethene-BF2 complex]?
Answer: λlas ([4]; 2 × 10^-4 M in ethanol): 578 nm; RE (relative efficiency) [4]: 85

Question: For `CCCCC1=C(C)C2=C(C)c3c(C)c(CCCC)c(C)n3[B-](F)(F)[N+]2=C1C` [Compound 7e], which λlas ([4]; 2 × 10^-4 M in ethanol) is on record?
Answer: 580 nm

Question: For `CC1=C(C(C)C)C(C)=[N+]2C1=C(C)c1c(C)c(C(C)C)c(C)n1[B-]2(F)F` [Compound 7f], which λlas ([4]; 2 × 10^-4 M in ethanol) is on record?
Answer: 577 nm

Question: And the “RE (relative efficiency)” value [4]?
Answer: 45

Question: Which λlas ([4]; 2 × 10^-4 M in ethanol) does the source give for `CC1=C(C(C)(C)C)C(C)=[N+]2C1=C(C)c1c(C)c(C(C)(C)C)c(C)n1[B-]2(F)F` [Compound 7g] here?
Answer: 597 nm

Question: What about the “RE (relative efficiency)” value [4] of the same compound?
Answer: 50

Question: For `CC1=C2C=C3CCCCC3=[N+]2[B-](F)(F)n2c1cc1c2CCCC1` [Compound 7h, 2,3,6,7-bistetramethylene-8-methylpyrromethene-BF2 complex], which λlas ([4]; 2 × 10^-4 M in ethanol) is on record?
Answer: 589 nm

Question: With `CC1=C2CCCCC2=[N+]2C1=C(C)c1c(C)c3c(n1[B-]2(F)F)CCCC3` [Compound 7i] as the compound, how does the λlas ([4]; 2 × 10^-4 M in ethanol) read?
Answer: 582 nm

Question: With `CC1=C2C3=C(CCC3)C(C)=[N+]2[B-](F)(F)n2c(C)c3c(c21)CCC3` [Compound 7j, 1,2,6,7-bistrimethylene-3,5,8-trimethylpyrromethene-BF2 complex] as the compound, how does the λlas ([4]; 2 × 10^-4 M in ethanol) read?
Answer: 560 nm

Question: And the “RE (relative efficiency)” value [4]?
Answer: 20

Question: Which results are given for `CCC1=C(CC)C(C)=[N+]2C1=C(C)c1c(CC)c(CC)c(C)n1[B-]2(F)F` [Compound 7k, 1,2,6,7-tetraethyl-3,5,8-trimethylpyrromethene BF2 complex]?
Answer: λlas ([4]; 2 × 10^-4 M in ethanol): 582 nm; RE (relative efficiency) [4]: 75

Question: What does the source list for `CC1=C(c2ccccc2)C(C)=[N+]2C1=C(C)c1c(C)c(-c3ccccc3)c(C)n1[B-]2(F)F` [Compound 7l]?
Answer: laser activity [4]: Low lasing activity; λlas ([4]; 2 × 10^-4 M in ethanol): 582 nm; RE (relative efficiency) [4]: 20

Question: For `CC(=O)NC1=C(C)C2=C(C)c3c(C)c(NC(C)=O)c(C)n3[B-](F)(F)[N+]2=C1C` [Compound 7m], which λlas ([4]; 2 × 10^-4 M in trifluoroethanol) is on record?
Answer: 566 nm

Question: And the “RE (relative efficiency)” value [4]?
Answer: 5

Question: Which λlas ([4]; 2 × 10^-4 M in ethanol) does the source give for `COC1=C(C)C(C)=[N+]2C1=C(C)c1c(OC)c(C)c(C)n1[B-]2(F)F` [Compound 7n, 1,7-dimethoxy-2,3,5,6,8-pentamethylpyrromethene-BF2 complex] here?
Answer: 540 nm

Question: And the “RE (relative efficiency)” value [4]?
Answer: 30

Question: What does the source list for `CCC1=C(C)C2=C(CC)c3c(C)c(CC)c(C)n3[B-](F)(F)[N+]2=C1C` [Compound 7o, 1,3,5,7-tetramethyl-2,6,8-triethylpyrromethene-BF2 complex]?
Answer: λlas ([4]; 2 × 10^-4 M in ethanol): 571 nm; RE (relative efficiency) [4]: 75

Question: For `CCC1=C(C)C2=C(C(C)C)c3c(C)c(CC)c(C)n3[B-](F)(F)[N+]2=C1C` [Compound 7p, 1,3,5,7-tetramethyl-2,6-diethyl-8-isopropylpyrromethene-BF2 complex], which “laser activity” value [4] is on record?
Answer: loss of laser activity; also recorded: absence of fluorescence and laser activity

Question: With `CCC1=C(C)C2=C(C3CCCCC3)c3c(C)c(CC)c(C)n3[B-](F)(F)[N+]2=C1C` [Compound 7q, 1,3,5,7-tetramethyl-2,6-diethyl-8-cyclohexylpyrromethene-BF2 complex] as the compound, how does the “laser activity” value [4] read?
Answer: no laser activity; also recorded: lack of laser activity

Question: Which results are given for `CCC1=C(C)C2=C(COC(C)=O)c3c(C)c(CC)c(C)n3[B-](F)(F)[N+]2=C1C` [Compound 7r]?
Answer: λlas ([4]; 2 × 10^-4 M in ethanol): 605 nm; RE (relative efficiency) [4]: 30

Question: For `COc1ccc(C2=C3C(C)=CC(C)=[N+]3[B-](F)(F)n3c(C)cc(C)c32)cc1` [Compound 7t, 1,3,5,7-tetramethyl-8-p-methoxyphenylpyrromethene-BF2 complex], which λlas ([4]; 2 × 10^-4 M in ethanol) is on record?
Answer: 547 nm

Question: And the “RE (relative efficiency)” value [4]?
Answer: 50

Question: What does the source list for `CCC1=C(c2ccccc2)C2=Cc3c(-c4ccccc4)c(CC)c(C)n3[B-](F)(F)[N+]2=C1C` [Compound 7u]?
Answer: laser activity [4]: Low lasing activity; λlas ([4]; 2 × 10^-4 M in ethanol): 582 nm; RE (relative efficiency) [4]: 10

Question: With `CC1=[N+]2C(=Cc3c(-c4ccccc4)c(-c4ccccc4)c(C)n3[B-]2(F)F)C(c2ccccc2)=C1c1ccccc1` [Compound 7v, 1,2,6,7-tetraphenyl-3,5-dimethylpyrromethene-BF2 complex] as the compound, how does the “laser activity” value [4] read?
Answer: absence of lasing activity

Question: With `CC1=[N+]2C(=Cc3c(-c4ccccc4)cc(C)n3[B-]2(F)F)C(c2ccccc2)=C1` [Compound 7w, 1,7-diphenyl-3,5-dimethylpyrromethene-BF2 complex] as the compound, how does the “laser activity” value [4] read?
Answer: Low lasing activity

Question: What about the λlas ([4]; 2 × 10^-4 M in ethanol) of the same compound?
Answer: 580 nm

Question: What about the “RE (relative efficiency)” value [4] of the same compound?
Answer: 5

Question: For `CC1=C(C(C)(C)C)C(C)=[N+]2C1=Cc1c(C)c(C(C)(C)C)c(C)n1[B-]2(F)F` [Compound 7x, 1,3,5,7-tetramethyl-2,6-di-tert-butylpyrromethene-BF2 complex], which λlas ([4]; 2 × 10^-4 M in ethanol) is on record?
Answer: 580 nm

Question: What about the “RE (relative efficiency)” value [4] of the same compound?
Answer: 30

Question: With `CCC1=C(CC)C(C)=[N+]2C1=Cc1c(CC)c(CC)c(C)n1[B-]2(F)F` [Compound 7y, 1,2,6,7-tetraethyl-3,5-dimethylpyrromethene-BF2 complex] as the compound, how does the λlas ([4]; 2 × 10^-4 M in ethanol) read?
Answer: 580 nm

Question: What about the “RE (relative efficiency)” value [4] of the same compound?
Answer: 40

Question: Which λlas ([4]; 2 × 10^-4 M in ethanol) does the source give for `CC1=C(C)C(C)=[N+]2C1=Cc1c(C)c(C)c(C)n1[B-]2(F)F` [Compound 7z, 1,2,3,5,6,7-hexamethylpyrromethene-BF2 complex] here?
Answer: 570 nm

Question: And the “RE (relative efficiency)” value [4]?
Answer: 30

Question: Which “RE (relative efficiency)” value [4] does the source give for `CC1=C(S(=O)(=O)O)C(C)=[N+]2C1=C(C)c1c(C)c(S(=O)(=O)O)c(C)n1[B-]2(F)F` [Compound 16, 1,3,5,7,8-pentamethylpyrromethene-2,6-disulfonic acid-BF2 complex] here?
Answer: 95

Question: With `CCC1=C2C(C)=C(S(=O)(=O)O)C(C)=[N+]2[B-](F)(F)n2c(C)c(S(=O)(=O)O)c(C)c21` [Compound 17, 1,3,5,7-tetramethyl-8-ethylpyrromethene-2,6-disulfonic acid-BF2 complex] as the compound, how does the “RE (relative efficiency)” value [4] read?
Answer: 50

Question: Which “RE (relative efficiency)” value [4] does the source give for `COS(=O)(=O)C1=C(C)C2=C(C)c3c(C)c(S(=O)(=O)OC)c(C)n3[B-](F)(F)[N+]2=C1C` [Compound 18] here?
Answer: 35

Question: For `CCOC(=O)C1=C(C)C2=C(CC)c3c(C)c(C(=O)OCC)c(C)n3[B-](F)(F)[N+]2=C1C` [Compound 19], which “RE (relative efficiency)” value [4] is on record?
Answer: 50

Question: Which “power efficiency / power output” value [5] does the source give for `CCN=c1cc2oc3cc(NCC)c(C)cc3c(-c3ccccc3C(=O)OCC)c-2cc1C` [Compound R-6G, reference compound] here?
Answer: 32%

Question: For `CCC1=C2C(C)=CC(C)=[N+]2[B-](F)(F)n2c(C)cc(C)c21` [III, 4,4-difluoro-1,3,5,7-tetramethyl-8-ethyl-4-bora-3a,4a-diaza-s-indacene], which Vth [2] is on record?
Answer: 10 kV

Question: What about the “Eo (V = 18 kV)” value [2] of the same compound?
Answer: 90 mJ

Question: What about the λL [2] of the same compound?
Answer: 540 nm

Question: What does the source list for `CC1=C(S(=O)(=O)O)C(C)=[N+]2C1=C(C)c1c(C)c(S(=O)(=O)O)c(C)n1[B-]2(F)F` [PMPDS-BF2, Disodium salt of 4,4-difluoro-1,3,5,7,8-pentamethyl-4-bora-3a,4a-diaza-s-indacene-2,6-disulfonic acid monohydrate]?
Answer: power efficiency obtained from R-6G (relative) [6]: 145%; Vth [2]: 10 kV; Eo (V = 18 kV) [2]: 80 mJ; λL [2]: 555 nm; lasing threshold ([3]; 60 mg in 230 ml of H2O): 10 kV; lasing wavelength range ([3]; 60 mg in 230 ml of H2O): 545-585 nm; power efficiency / power output [5]: 45%

Question: Which results are given for `CCN=c1cc2oc3cc(NCC)c(C)cc3c(-c3ccccc3C(=O)OCC)c-2cc1C` [Rhodamine 590, reference compound]?
Answer: Vth [2]: 8 kV; Eo (V = 18 kV) [2]: 100 mJ; λL [2]: 578 nm

Question: Which λlas ([1]; literature or known dye) does the source give for `F[B-]1(F)N2C=CC=CC2=Nc2cccc[n+]21` [boratriazinium salt, reference compound] here?
Answer: 420 nm

Question: With `CCN(CC)c1ccc2c(-c3ccccc3C(=O)O)c3ccc(=[N+](CC)CC)cc-3oc2c1` [rhodamine-B, reference compound] as the compound, how does the λlas ([4]; comparator of dye 7aa, solvent not stated) read?
Answer: 611 nm

Question: With `CCN(CC)c1ccc2c(-c3ccc(S(=O)(=O)O)cc3S(=O)(=O)[O-])c3ccc(=[N+](CC)CC)cc-3oc2c1` [sulforhodamine-B, reference compound] as the compound, how does the power efficiency [7] read?
Answer: 37%

Entries after “also recorded” stand apart in the source; their conditions may differ. Where a name gives a salt, the structure may show the parent alone. Read-outs that look alike come from different tables or passages of the source.
